Source: PMC4090178, “Structural and Biochemical Characterization of Human PR70 in Isolation and in Complex with the Scaffolding Subunit of Protein Phosphatase 2A” (PLoS ONE, 2014)
No constants are given. Whether binding was seen depends on the method and setting.

The chains behind the UniProt entries cited, without tags or fusion partners.
UniProt P30153: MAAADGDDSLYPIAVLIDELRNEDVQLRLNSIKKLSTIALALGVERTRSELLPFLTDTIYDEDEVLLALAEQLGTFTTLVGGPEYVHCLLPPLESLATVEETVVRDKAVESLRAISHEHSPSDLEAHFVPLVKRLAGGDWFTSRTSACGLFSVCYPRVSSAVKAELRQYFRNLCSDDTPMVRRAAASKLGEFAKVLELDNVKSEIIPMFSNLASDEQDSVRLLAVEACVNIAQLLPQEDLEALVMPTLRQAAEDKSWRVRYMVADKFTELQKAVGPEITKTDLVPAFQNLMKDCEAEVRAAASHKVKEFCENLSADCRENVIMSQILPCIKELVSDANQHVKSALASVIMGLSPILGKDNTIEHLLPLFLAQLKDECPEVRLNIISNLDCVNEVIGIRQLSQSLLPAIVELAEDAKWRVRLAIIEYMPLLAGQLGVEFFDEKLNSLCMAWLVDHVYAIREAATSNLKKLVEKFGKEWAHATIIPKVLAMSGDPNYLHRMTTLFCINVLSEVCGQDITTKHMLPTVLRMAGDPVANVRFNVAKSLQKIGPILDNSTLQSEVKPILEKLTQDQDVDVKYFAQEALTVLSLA

Assays:
[1] = target: T1, PR72 (92–449) (UniProt Q06190); experiment: ITC; B''-constructs at 20–40 µM in the cell titrated with 200–300 µM Aα or Aβ constructs; 15°C; 20 mM Tris pH 7.5, 200 mM NaCl, 2 mM CaCl2; 1:1 binding model; both purified
T1 sequence: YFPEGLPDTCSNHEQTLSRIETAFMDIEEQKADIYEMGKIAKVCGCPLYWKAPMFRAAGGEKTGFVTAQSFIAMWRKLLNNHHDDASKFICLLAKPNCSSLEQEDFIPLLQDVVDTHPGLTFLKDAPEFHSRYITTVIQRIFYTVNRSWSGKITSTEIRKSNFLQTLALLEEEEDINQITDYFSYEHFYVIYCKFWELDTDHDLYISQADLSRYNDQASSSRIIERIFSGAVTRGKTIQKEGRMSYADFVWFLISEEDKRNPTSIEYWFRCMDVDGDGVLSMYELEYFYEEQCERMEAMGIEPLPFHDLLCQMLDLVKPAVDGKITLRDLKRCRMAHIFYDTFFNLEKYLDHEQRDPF

[2] = target: T2, PR70 (485–575) (human) (UniProt Q9Y5P8); experiment: as above
T2 sequence: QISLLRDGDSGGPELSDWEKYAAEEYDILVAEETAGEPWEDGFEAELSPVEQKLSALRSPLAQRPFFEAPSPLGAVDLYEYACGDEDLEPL

binding [1]: no binding
binding [2]: no binding
Sequence: A α (HEAT1–15) (from UniProt P30153 1-589)
